Test results published in PubChem BioAssay AID1347076 (National Center for Advancing Translational Sciences (NCATS), 2019).
Among all 400,000 compounds or so, about 13,000 (3.2%) were called active. Inconclusive results, whose numbers are uncertain, are shown with a selection of clear calls. Calls come from the whole dose curve; as a rule, active = well fitted cell-killing curve with a large enough effect; inconclusive = small, poorly fitted or top-dose-only effect, or effect the other way; inactive = flat fitted curve, though single readings scatter. Where the call is inconclusive, the potency comes from a doubtful curve fit.

Experiment: qHTS assay for MDR1-selective chemotherapeutics: Primary screen using the drug-selected MDR subline cells KB-V1; note: nearly all actives have a fitted effect of over 60% in size
Details: KB-V1 MDR cells viability, CellTiter-Glo, 72 h; activity change, negative = cytotoxicity: at 46.1 µM (top of the series)
How it was run: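 Compound-treated KB-V1 multidrug-resistant cells, 72 h, 37 degrees C; viability by CellTiter-Glo. Fitted qHTS curves give the values.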
% is set by controls: 0 for no effect and ±100 for the full control effect; potency is the fitted concentration of half-maximal effect.

Row | Structure (SMILES) | Potency | activity change, negative = cytotoxicity
1 | O=C(Oc1nsnc1N1CCCCC1)N1CCOCC1 | inconclusive: 35.5 µM [cytotoxic, single point] | 
2 | COc1ccc(Oc2ccc(/C=C/C(=O)c3ccc(O)cc3)cc2[N+](=O)[O-])cc1 | inconclusive: 23.1 µM [cytotoxic, partial curve, poor fit] | 
3 | CCN(CC)S(=O)(=O)c1ccc(/C=C/C(=O)Nc2ccc(F)cc2F)cc1 |  | inactive: -25.9%
4 | CC(NC(=O)c1cccc2ccccc12)c1ccc2c(c1)CCCC2 (stereo not drawn) | active: 20.6 µM | 
5 | Nn1c(SCC(=O)NC2CCCCC2)nnc1C1CC1 |  | inactive: 4.79%
6 | CC(C)(C)N1C(=O)[C@H]2[C@@H](c3ccc(Br)cc3)N3C(=O)N(c4ccc(Br)cc4)C(=O)[C@@]3(Cc3ccccc3)[C@H]2C1=O |  | inactive: -14.9%
7 | O=C(CN1CCN(S(=O)(=O)c2ccc3ccccc3c2)CC1)NC(=O)NC1CCCCC1 | active: 18.4 µM | 
8 | CC(C)Cc1cc(C(=O)Nc2cc(C(F)(F)F)ccc2Cl)no1 |  | inactive: 6.21%
9 | Cc1ccc(/C=C(/C#N)C(=O)NC(C)c2ccccc2)o1 (stereo not drawn) | active: 18.4 µM | 
10 | Cc1ccc(S(=O)(=O)N2CCC(C(=O)Nc3ccncc3)CC2)cc1 |  | inactive: 0%
11 | Cc1ccc(S(=O)(=O)N(C)Cc2ccccc2)cc1C(=O)N1CCCCC1 | inconclusive: 29.1 µM [cytotoxic, partial curve, poor fit] | 
12 | C=CCN1C(=O)c2ccc(C(=O)N3CCN(S(=O)(=O)c4ccccc4Br)CC3)cc2C1=O |  | inactive: 0%
13 | CC1=NNC(=O)C1CCC(=O)N/N=C/C=C/c1ccccc1 (stereo not drawn) | inconclusive: 18.4 µM [rising, single point] | 
14 | CCc1ccc(/C=C2\Oc3cc(OS(C)(=O)=O)ccc3C2=O)cc1 | inconclusive: 25.9 µM [rising, single point] | 
15 | COc1cccc(NC(=O)C2Cc3ccccc3CN2C(=O)c2ccco2)c1 (stereo not drawn) | inconclusive: 7.31 µM [cytotoxic, partial curve] | 
16 | COc1ccc2c(c1)CCCN2S(=O)(=O)c1ccc(Cl)cc1 |  | inactive: 4.81%
17 | Cc1ccc(C(=O)OCn2ncc(Cl)c(Cl)c2=O)cc1 | inconclusive: 2.31 µM [cytotoxic, full curve, poor fit] | 
18 | COn1c(=O)c(-c2ccc(F)cc2)[n+]([O-])c2ccccc21 | inconclusive: 23.1 µM [cytotoxic, single point] | 
19 | COC(=O)c1ccc(NC(=O)CSc2nc3c(c(=O)n(C)c(=O)n3C)n2Cc2ccccc2)cc1 | inconclusive: 29.1 µM [rising, single point] | 
20 | Cc1csc(N/N=C/c2ccc(O)c([N+](=O)[O-])c2)n1 | inconclusive: 29.1 µM [cytotoxic, single point] | 
21 | Cc1cc2ccccn2c1C(=O)c1ccccc1Br | inconclusive: 18.4 µM [cytotoxic, single point] | 
22 | Oc1cc2c(c(Cl)c1O)CCNCC2c1ccccc1 (stereo not drawn) | inconclusive: 20.6 µM [cytotoxic, partial curve] | 
23 | Cc1cc(NC(=O)c2cccc(F)c2)ncc1NC(=O)c1ccco1 | inconclusive: 20.6 µM [cytotoxic, single point] | 

Exported with tabs: part of the list above
Row	Structure (SMILES)	Potency	activity change, negative = cytotoxicity
10	Cc1ccc(S(=O)(=O)N2CCC(C(=O)Nc3ccncc3)CC2)cc1		inactive: 0%
15	COc1cccc(NC(=O)C2Cc3ccccc3CN2C(=O)c2ccco2)c1 (stereo not drawn)	inconclusive: 7.31 µM [cytotoxic, partial curve]	

Additional compounds

Row | Structure (SMILES) | Potency | activity change, negative = cytotoxicity
24 | O=C(CN1CCN(Cc2ccccc2)CC1)Nc1cccc(Br)c1 | inconclusive: 11.6 µM [cytotoxic, partial curve] | 
25 | O=C1NC(=Nc2ccc(Cl)cc2)SC1Cc1cc(Cl)ccc1Cl (stereo not drawn) | active: 14.6 µM | 
26 | Cc1ccc(NS(=O)(=O)c2cc(C(=O)Nc3cccc(N(C)S(C)(=O)=O)c3)ccc2C)c(C)c1 | active: 16.4 µM | 
27 | CCCCCCn1c(-c2cccs2)n[nH]c1=S |  | inconclusive: 7.17%
28 | COC(=O)c1ccc(OC)c(CSc2nnc(COc3cccc(C)c3)o2)c1 | inconclusive: 14.6 µM [cytotoxic, partial curve] | 
29 | COc1ccccc1C(=O)Nc1cccc(S(=O)(=O)N2CCCC2)c1 | inconclusive: 14.6 µM [cytotoxic, partial curve, poor fit] | 
30 | O=C(Nc1ccc(F)cc1)OCCN1CCN(Cc2ccccc2)CCC1=O | inconclusive: 29.1 µM [cytotoxic, partial curve, poor fit] | 
31 | CCCCn1c(OC(=S)N(CC)CC)cc(C)nc1=S |  | inactive: 6.38%
32 | CCc1csc(CCNC(=O)C2CCC(=O)N(CCOC)C2)n1 (stereo not drawn) |  | inactive: 0%
33 | Cc1ccc2[nH]c(=O)c(CN(CC3COCCO3)C(=O)Nc3ccccc3F)cc2c1 (stereo not drawn) | inconclusive: 14.6 µM [cytotoxic, partial curve, poor fit] | 
34 | CC(Nc1cccc(C(=O)NC2CC2)c1)c1nnc(-c2ccccc2)o1 (stereo not drawn) | inconclusive: 18.4 µM [cytotoxic, partial curve] | 
35 | O=C(CSc1nc(=O)n(CCN2CCOCC2)c2c1CCCC2)Nc1cccc([N+](=O)[O-])c1 |  | inactive: 2.05%
36 | COc1ccc(C(=O)Nc2nc(-c3ccc([N+](=O)[O-])cc3)c(-c3ccccc3)s2)cc1 | inconclusive: 10.3 µM [cytotoxic, partial curve, poor fit] | 
37 | Cc1cc2oc(C(=O)NCc3ccccc3)cc(=O)c2cc1C |  | inactive: -19.4%
38 | CC(C)N1CCC2(CC1)N=C(c1ccc3c(c1)OCO3)CC(c1cc(Cl)ccc1O)N2 (stereo not drawn) | inconclusive: 20.6 µM [cytotoxic, single point] | 
39 | O=C(COC(=O)/C=C/c1ccc(Cl)cc1)NC1CCCC1 | inconclusive: 23.1 µM [rising, single point] | 
40 | Cc1cccc(C)c1Nc1nnc(SCc2cn3cccc(C)c3n2)s1 |  | inactive: -11.7%
41 | CC(C)N(C(=O)CSc1nnnn1-c1ccc2c(c1)OCO2)C(C)C |  | inactive: -15.5%
42 | COc1cc(S(=O)(=O)n2cnc(C)c2)ccc1Br | inconclusive: 23.1 µM [cytotoxic, single point] | 
43 | O=C(NC(=S)Nn1cnc2c(cnn2-c2ccccc2)c1=O)c1ccc(Oc2ccccc2)cc1 | inconclusive: 29.1 µM [cytotoxic, single point] | 
44 | CCC(=O)OCC(=O)[C@@]1(OC(=O)CC)[C@@H](C)C[C@H]2[C@@H]3CCC4=CC(=O)C=C[C@]4(C)[C@@]3(Cl)[C@@H](O)C[C@@]21C | inconclusive: 23.1 µM [cytotoxic, single point] | 
45 | CC(Sc1nncs1)C(=O)NCC(=O)Nc1ccc(F)c(F)c1F (stereo not drawn) |  | inactive: -0.625%
46 | CN1CCN(C(=O)C2=C[C@@H](c3csc4ccccc34)C[C@@H](OCc3ccc(CO)cc3)O2)CC1 | inconclusive: 29.1 µM [rising, single point] | 

Row | Structure (SMILES) | Potency | activity change, negative = cytotoxicity
47 | Cc1nc2nc(C(F)(F)F)[nH]n2c(=O)c1Cc1ccccc1 | inconclusive: 23.1 µM [rising, single point] | 
48 | COc1ccc(-c2[nH]nc3c2C(c2ccoc2)C(C#N)=C(N)O3)cc1 (stereo not drawn) | inconclusive: 3.26 µM [rising, partial curve, poor fit] | 
49 | COc1ccccc1CNC(=O)/C=C/c1ccc(Br)o1 | inconclusive: 29.1 µM [rising, single point] | 
50 | Cc1ccc(C(C)C)c(OCC(=O)NNCC(=O)Nc2cccc(F)c2)c1 | inconclusive: 18.4 µM [cytotoxic, single point] | 
51 | CCOC(=O)[C@]12CCCC=C1N(CCc1ccc(OC)c(OC)c1)C(=O)[C@H](CC(=O)NCCCCc1ccccc1)C2 | active: 20.6 µM | 
52 | COc1ccc(NC(=S)N2N=CCC2c2ccccc2)cc1 (stereo not drawn) | inconclusive: 20.6 µM [cytotoxic, single point] | 
53 | Cc1ccc(/C=N/c2sc3c(c2C#N)CCC3)o1 | inconclusive: 5.17 µM [rising, full curve] | 
54 | O=c1c2ccccc2nc2n1CCc1c-2[nH]c2ccccc12 | inconclusive: 11.6 µM [cytotoxic, partial curve, poor fit] | 
55 | Cc1ccc(Cn2c(C)c3cnn(CC(=O)N4CCN(c5ccc(F)cc5)CC4)c(=O)c3c2C)cc1 | inconclusive: 8.2 µM [cytotoxic, partial curve] | 
56 | COc1ccc(Cl)cc1NS(=O)(=O)c1c(C)[nH]c(=O)[nH]c1=O | inconclusive: 29.1 µM [rising, single point] | 
57 | CCOc1ccc2nc(NCCNC(=S)NCCCN(C)C)c(C#N)cc2c1 |  | inactive: 23.1%
58 | Cc1ccc(O)c(NC(=O)CCSc2nc(-c3ccco3)cc(C(F)(F)F)n2)c1 |  | inactive: -16.9%
59 | Cc1sc2ncnc(SCC(=O)NNC(=O)c3ccco3)c2c1C | inconclusive: 20.6 µM [rising, partial curve, poor fit] | 
60 | Cn1c(=O)c(=O)n(C)c2cc(S(=O)(=O)N3CCN(Cc4ccccc4)CC3)ccc21 | inconclusive: 14.6 µM [cytotoxic, partial curve] | 
61 | CC(=O)c1c(O)c2ccccc2n(C(C)C)c1=O | inconclusive: 0.0065 µM [cytotoxic, full curve] | 
62 | O=C(COC(=O)c1ccc(F)cc1)Nc1ccccc1N1CCOCC1 | inconclusive: 0.731 µM [rising, full curve] | 
63 | CCOc1ccc(NC(=O)CN(C)C(=O)C2CSC3(C)CCC(=O)N23)cc1OCC (stereo not drawn) | inconclusive: 20.6 µM [rising, single point] | 
64 | COc1cc(NC(=O)c2ccccc2[N+](=O)[O-])ccc1NC(=O)c1cc2ccccc2o1 |  | inactive: -3.03%
65 | COc1ccc(OC)c(C2CC(=O)c3c([nH]c(C(=O)OCC4CCCO4)c3C)C2)c1 (stereo not drawn) | inconclusive: 5.8 µM [cytotoxic, full curve, poor fit] | 
66 | CN1C(=O)C(O)(CC(=O)c2ccccn2)c2cc(Br)ccc21 (stereo not drawn) | active: 7.31 µM | 
67 | COc1nnc(-c2ccc(N3CCCCC3)c(NC(=O)c3ccccc3)c2)c2ccccc12 |  | inactive: -50.6%
68 | CCCCNC(=O)C1(C)CCN1Cc1cccc2c(OC)cc(C(=O)OCC)cc12 (stereo not drawn) | inconclusive: 18.4 µM [cytotoxic, single point] | 
